Here are results for 4 substances from US6500942.

Protein sequences, listed by entry. Tags and fused reporters are not part of them. Lines headed by an entry give the natural chain unless they say otherwise; changes in a name come on top.
UniProt P04386: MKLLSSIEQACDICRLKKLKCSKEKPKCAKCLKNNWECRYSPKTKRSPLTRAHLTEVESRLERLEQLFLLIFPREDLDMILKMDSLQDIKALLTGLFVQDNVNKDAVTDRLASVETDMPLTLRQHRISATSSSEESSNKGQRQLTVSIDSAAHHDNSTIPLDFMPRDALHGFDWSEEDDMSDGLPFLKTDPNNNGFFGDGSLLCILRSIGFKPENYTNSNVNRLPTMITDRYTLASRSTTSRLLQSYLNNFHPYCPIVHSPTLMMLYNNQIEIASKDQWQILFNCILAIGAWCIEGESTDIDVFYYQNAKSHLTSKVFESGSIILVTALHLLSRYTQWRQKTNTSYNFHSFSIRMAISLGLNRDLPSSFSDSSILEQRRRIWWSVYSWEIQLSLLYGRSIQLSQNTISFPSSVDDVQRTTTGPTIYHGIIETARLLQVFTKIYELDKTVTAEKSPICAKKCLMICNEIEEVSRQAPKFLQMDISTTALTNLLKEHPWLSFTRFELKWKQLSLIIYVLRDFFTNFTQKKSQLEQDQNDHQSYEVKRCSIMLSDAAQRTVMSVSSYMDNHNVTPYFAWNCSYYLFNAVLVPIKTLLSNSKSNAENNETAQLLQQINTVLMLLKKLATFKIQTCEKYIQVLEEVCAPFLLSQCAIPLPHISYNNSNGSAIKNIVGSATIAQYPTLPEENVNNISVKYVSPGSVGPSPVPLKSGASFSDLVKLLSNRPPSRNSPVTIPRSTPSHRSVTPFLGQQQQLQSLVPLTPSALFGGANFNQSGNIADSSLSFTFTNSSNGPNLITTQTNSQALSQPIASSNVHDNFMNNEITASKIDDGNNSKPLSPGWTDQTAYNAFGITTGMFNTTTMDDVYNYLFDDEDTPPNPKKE
UniProt Q9JM13: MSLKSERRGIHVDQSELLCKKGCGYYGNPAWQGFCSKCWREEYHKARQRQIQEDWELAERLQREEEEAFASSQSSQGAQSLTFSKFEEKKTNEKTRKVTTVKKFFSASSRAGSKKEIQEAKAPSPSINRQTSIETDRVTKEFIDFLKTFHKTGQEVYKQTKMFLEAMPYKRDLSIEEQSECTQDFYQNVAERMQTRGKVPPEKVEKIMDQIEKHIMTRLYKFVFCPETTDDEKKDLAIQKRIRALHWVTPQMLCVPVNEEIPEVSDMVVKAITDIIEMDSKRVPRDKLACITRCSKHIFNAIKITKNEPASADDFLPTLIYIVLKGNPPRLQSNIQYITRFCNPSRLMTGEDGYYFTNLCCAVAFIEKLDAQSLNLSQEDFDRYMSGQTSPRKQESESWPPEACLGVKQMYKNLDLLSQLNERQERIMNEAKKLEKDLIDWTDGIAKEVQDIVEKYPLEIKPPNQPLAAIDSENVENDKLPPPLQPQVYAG

Test [1] has as its target T1, wild-type murine H-Ras expressed as the DNA-binding fusion protein (murine) (UniProt P04386+Q61411). In words: yeast two-hybrid, Rin2 segment as GAL4-activation domain fusion, H-Ras as DNA-binding fusion.
The target in test [2] is T1, wild-type murine H-Ras expressed as the DNA-binding fusion protein (murine). The experiment in a line: yeast two-hybrid, Rin2 as GAL4-activation domain fusion, H-Ras as DNA-binding fusion.

Results are given in words; binding and its absence hold for the method and conditions named. Some binding calls cover weakened binding; strength is not graded here.

Regarding “C-terminal region of murine Rin2 expressed as a GAL4-activation domain fusion protein (from UniProt Q9JM13 381-491)”, the binding entry in test [1] is given as “binds”.
Still for that read-out and setting: the entry for “N-terminal region of murine Rin2 expressed as a GAL4-activation domain fusion protein (from UniProt Q9JM13 1-202)” is “binds”.
“full-length murine Rin2 (residues 1-491) expressed as a GAL4-activation domain fusion protein (from UniProt Q9JM13 1-491)”: in test [2], the binding result was “binds”.
As for “region of murine Rin2 containing the three GBH domains (residues 203-380) expressed as a GAL4-activation domain fusion protein (from UniProt Q9JM13 203-380)”, the binding result in test [1] is reported as “binds”.
